Laboratory results as given in PMC4773814.
These are yes or no findings as the source states them, for the method shown. Binding seen in cells or lysates may run through a third protein. Binding can be weak; no strength is given.

Biological target: T1, Caveolin 1 (rat) (UniProt P41350)
T1 sequence: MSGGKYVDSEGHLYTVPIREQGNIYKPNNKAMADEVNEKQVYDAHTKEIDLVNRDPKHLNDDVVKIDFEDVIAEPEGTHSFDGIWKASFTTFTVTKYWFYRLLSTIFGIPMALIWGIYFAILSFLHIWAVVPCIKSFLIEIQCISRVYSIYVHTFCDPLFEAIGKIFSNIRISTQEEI
Assay: co-IP; total protein lysates of HEK Cav1 cells 24 h after transfection with YFP-tagged channels; immunoprecipitation against caveolin, blot against GFP; 1% Triton X-100 NHG buffer, 4 °C

Substance | binding
Kv1.3ΔNt (rat) (domain or fragment) | no binding
Kv1.3ΔCt (rat) (domain or fragment) | binds
